This experiment is described as follows: qHTS Assay for Lipid Storage Modulators in Drosophila S3 Cells.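 On cell number change: cells counted by Cell Tracker Red CMTPX staining in the red channel.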 The conditions noted are these: BODIPY lipid droplet fluorescence, 18-24 h; for cell number change: measured here: cell count max response, cells fed with added oleic acid. The gist of the method: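 Laser-scanning cytometry quantifies lipid droplet accumulation (500–530 nm total intensity; droplet/cell object ratio) in oleic acid-fed (400 uM added) Drosophila S3 cells treated with a concentration series. 20 uM Triacsin C defined 100% inhibition.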
Background: qHTS replaces the single test concentration by a dilution series.

Setting [1] is: measured here: lipid fluorescence (Fed channel) AC50, cells fed with added oleic acid.
Setting [2] is: measured here: cell number channel AC50, cells fed with added oleic acid.

This is one part of the list. Further columns of the screen follow, without active or inactive calls. The list favours compounds with an active or inconclusive main result. Potencies come from curve fits of mixed quality, noted in brackets.

The term AC50 denotes the concentration giving half of the maximal activity seen. The low end stands for greater potency, the high end for weaker potency. Consider `Cc1ccc(-c2nnn(CC(=O)N3CCN(c4nc5ccccc5s4)CC3)n2)cc1`, for which the cell number change stood at 2.75%. Further, the AC50 under setting [1] was 4.61 µM [rising, single point].
Consider `CN(CC(=O)Nc1ccc(Cl)cc1)S(=O)(=O)c1ccc2c(c1)n(C)c(=O)c(=O)n2C`, for which the cell number change is 11.8%.
Consider `CCOc1nc(NCc2ccco2)nc(Nc2ccc(OC)cc2)n1`, for which the cell number change came out at 12.7%. The AC50 under setting [1] is 5.8 µM [rising, full curve].
As for `CCOc1ccc(/C=N/NC(=O)NC23CC4CC(CC(C4)C2)C3)cc1O`, the cell number change is -43.1%. The AC50 under setting [2] is 0.231 µM [falling, partial curve, poor fit]. Further, the AC50 under setting [1] is 0.731 µM [falling, full curve].
On to `CCc1ccc(C(=O)COC(=O)CNC(=O)CNS(=O)(=O)c2ccccc2)cc1`, for which the cell number change was -2.64%. Under setting [1], the AC50 was 4.11 µM [rising, single point].
`COc1ccc(N(Cc2ccccc2)C(=O)CSc2nnc(Cn3nnc4ccccc43)o2)cc1`: the cell number change turned out to be 13.9%. Also, under setting [2], the AC50 was 1.84 µM [rising, single point]. Further, under setting [1], the AC50 was 5.17 µM [rising, partial curve].
As for `Cc1cc(NCCOCCO)n2c(nc3ccccc32)c1C#N`, the cell number change came to 19.4%.
On the same count and under the same terms, under `CC(C)c1ccc(S(=O)(=O)N2CCC(C(=O)NCc3ccco3)CC2)cc1` stands 88.4%; under `CC(C)C(=O)N1CCN(c2ccc(NC(=O)c3ccco3)cc2Cl)CC1`, -8.57%.
As for `NS(=O)(=O)c1ccc(CCNC(=O)COC(=O)CC(c2ccccc2)c2ccccc2)cc1`, the cell number change is 6.86%. The AC50 under setting [1] was 1.16 µM [falling, partial curve, poor fit].
As to `Cc1ccc(Cl)cc1N(CC(=O)NC(C)c1ccccc1)S(C)(=O)=O` (configuration not stated), the cell number change came out at 31.6%. In addition, under setting [2], the AC50 is 0.0058 µM [rising, full curve, poor fit]. Further, under setting [1], the AC50 is 23.1 µM [rising, single point].
On to `COC(=O)c1ccccc1NC(=O)c1cccc(COc2ccccc2Cl)c1`, for which the cell number change came out at 49.1%. The AC50 under setting [2] is 4.61 µM [rising, full curve, poor fit]. Also, the AC50 under setting [1] was 6.51 µM [rising, full curve].
For `COc1ccc(NC(=O)C2CC(c3cc(OC)c(OC)c(OC)c3)=NO2)cc1OC` (configuration not stated), the AC50 was 2.91 µM [rising, partial curve] under setting [2] and 4.61 µM [rising, partial curve] under setting [1].
Regarding `CCn1c(COc2ccccc2C)nnc1SCc1nc2ccccc2c(=O)[nH]1`, the AC50 under setting [2] is 0.461 µM [rising, full curve, poor fit] and the AC50 under setting [1] is 0.411 µM [rising, full curve, poor fit].
`CCOc1ccccc1C(=O)NC(C(=O)Nc1cccnc1)C(C)C` (configuration not stated): the AC50 under setting [2] was 0.092 µM [rising, partial curve, poor fit].
As to `CC(C)c1ccc(C(=O)NC(=S)NCc2cccnc2)cc1`, the cell number change is -7.78%.
For the molecule `O=C1NC(c2ccc3c(c2)OCO3)Oc2ccccc21` (configuration not stated), the cell number change is 36.6%. Also, under setting [2], the AC50 was 0.00461 µM [rising, full curve, poor fit]. Further, under setting [1], the AC50 was 0.0731 µM [falling, full curve, poor fit].
Take `CC(C)Oc1ccccc1NC(=O)CSc1nccn1C`: the cell number change is -15.3%.
For the molecule `Cc1ccc(-c2ccccc2NC(=O)CS(=O)CC(=O)Nc2ccc(C)c(Cl)c2)o1` (configuration not stated), under setting [1], the AC50 is 6.51 µM [falling, single point].
Consider `CCCn1c(SCC(=O)Nc2cc(Cl)ccc2OC)n[nH]c1=O`, for which the AC50 under setting [2] was 0.291 µM [rising, partial curve, poor fit].
As to `O=C(Nc1ccnn1C1CCN(C(=O)c2cccc(C(F)(F)F)c2)CC1)C1CC1`, the cell number change came out at 0.289%.
Turning to `O=C(CN1CCOCC1)Nc1ncc(Cc2ccccc2Cl)s1`, the AC50 under setting [1] is 0.13 µM [falling, full curve, poor fit].
As for `COc1ccc(C(=O)N/C(=C\c2ccccc2)C(=O)Nc2cccc(C(=O)O)c2)cc1`, the cell number change is 16.7%. For the same molecule, the AC50 under setting [1] is 0.103 µM [rising, full curve, poor fit].
Take `COc1ccccc1NC(=O)/C=C/c1ccc(OC)c(S(=O)(=O)N2CCOCC2)c1`: the cell number change stood at 22.1%. Also, under setting [1], the AC50 was 0.164 µM [rising, full curve, poor fit].
Regarding `CN1CCCC(C(=O)C(C#N)c2ccccc2)C1` (configuration not stated), the AC50 under setting [1] was 25.9 µM [falling, partial curve, poor fit].
Take `Cc1cc(C(=O)Nc2cccc3ncccc23)no1`: the cell number change turned out to be 13.7%. Moreover, the AC50 under setting [1] is 0.651 µM [falling, single point].
Turning to `Cc1ccc(-n2cc(CNCCc3ncc(C)[nH]3)c(-c3ccc(F)cc3)n2)cc1`, the cell number change is -53.6%. The AC50 under setting [2] is 18.4 µM [falling, single point]. For the same molecule, the AC50 under setting [1] was 29.1 µM [falling, single point].
With `COc1cc(OC)c(NS(=O)(=O)c2coc(C(N)=O)c2)cc1Cl`, the cell number change was -8.72%.
Turning to `CCn1c(SCC(=O)N2CC(=O)Nc3ccccc32)nnc1-c1ccoc1C`, the cell number change turned out to be 4.96%. Further, under setting [1], the AC50 was 20.6 µM [rising, single point].
As to `CCN(CC)c1ccc(-c2c(C#N)c(N)nc(OC)c2C#N)cc1`, the cell number change was -21.7%. Under setting [1], the AC50 is 0.461 µM [rising, full curve, poor fit].
As for `Cc1cc(C)c2c(CCl)cc(=O)oc2c1`, the cell number change stood at 13.1%. For the same molecule, the AC50 under setting [1] is 10.3 µM [rising, partial curve, poor fit].
`COCC(=O)NC1CC(C)(C)Cc2c1cnn2-c1ccc(F)cc1` (configuration not stated): the cell number change turned out to be 0.549%.
As for `CN(C)c1ccc(C(=O)N2CCNC(=O)C2CC(=O)Nc2ccc(F)cc2)cc1` (configuration not stated), the cell number change turned out to be 4.2%. In addition, under setting [2], the AC50 is 2.31 µM [rising, partial curve]. Further, the AC50 under setting [1] is 3.26 µM [rising, full curve].
For the molecule `Cn1c(=O)c(Oc2ccc(Cl)cc2)c(O)c2ccccc21`, the cell number change amounted to 7.63%. Under setting [1], the AC50 was 0.13 µM [rising, full curve, poor fit].
On to `C/C(CC(C)(C)C1CCCCC1)=N\NC(N)=S`, for which the cell number change is -72.4%. For the same molecule, the AC50 under setting [2] is 20.6 µM [falling, single point]. In addition, the AC50 under setting [1] was 29.1 µM [falling, single point].
Consider `Cn1c(=O)c2c(nc(NCc3ccco3)n2Cc2ccccc2Cl)n(C)c1=O`, for which the cell number change is -29.5%. The AC50 under setting [2] is 2.31 µM [falling, full curve, poor fit].
Turning to `COC(=O)c1ccc(N2CN=C(c3ccc(C)cc3)NC2=S)cc1`, the cell number change amounted to 47.6%. Also, the AC50 under setting [2] is 29.1 µM [rising, single point].
On to `CCC(O)c1cc2c(cc1NC(=O)c1ccc(C)cc1)OCCO2` (configuration not stated), for which the cell number change came to 16%. Also, under setting [1], the AC50 is 29.1 µM [falling, single point].
Regarding `Cn1c(SCc2ccccc2)nnc1-c1c[nH]c2ccccc12`, under setting [1], the AC50 was 6.51 µM [rising, single point].
`Cc1ccc(OCC(=O)N(Cc2ccccc2)c2c(N)n(Cc3ccccc3)c(=O)[nH]c2=O)c(C)c1`: the cell number change is -75.1%. The AC50 under setting [2] was 18.4 µM [falling, partial curve]. For the same molecule, the AC50 under setting [1] is 0.00461 µM [falling, full curve, poor fit].
As for `Cc1ccc(C(=O)c2cccc(N)c2)cc1C`, the cell number change worked out at 47.8%. Also, under setting [2], the AC50 was 8.2 µM [rising, partial curve]. In addition, the AC50 under setting [1] was 7.31 µM [rising, partial curve].
With `Cc1ccc(-c2noc(C3CCCN(S(=O)(=O)c4ccc(S(=O)(=O)N(C)C)cc4)C3)n2)o1` (configuration not stated), the cell number change is 33.7%. The AC50 under setting [2] is 29.1 µM [rising, single point]. The AC50 under setting [1] is 29.1 µM [rising, single point].
As for `COC(=O)c1cc(S(=O)(=O)Nc2nn(C)c3ccccc23)oc1C`, the cell number change worked out at 1.19%. Also, under setting [2], the AC50 was 0.58 µM [falling, single point].
Turning to `Cc1ccn(S(=O)(=O)c2ccc(N3CCCC3=O)cc2)n1`, the cell number change is 16.5%. Besides, the AC50 under setting [1] was 29.1 µM [rising, single point].
Turning to `CCSc1cc(C)nc2c(-c3ccc(Cl)cc3)c(C)nn12`, the AC50 under setting [2] is 0.731 µM [rising, full curve] and the AC50 under setting [1] is 1.3 µM [rising, full curve].
Consider `CC(c1ccncn1)N(C)C(=O)c1ccc2oc(Cc3ccccc3)nc2c1` (configuration not stated), for which the cell number change is -16.8%. In addition, under setting [1], the AC50 was 23.1 µM [rising, single point].
For `CCn1cc(C(=O)NCc2cccc(F)c2)c(=O)c2cc(F)c(N3CCN(C(=O)c4ccco4)CC3)cc21`, the cell number change amounted to 1.54%.
Same read-out and setting: under `CCC(C)C(NC(=O)[C@@H](NC(=O)c1ccccc1F)C(C)C)C(=O)OC` (some centres not stated) stands 9.78%.
On to `Cn1cc(/C=C(\C#N)C(=O)Nc2cccc([N+](=O)[O-])c2)c2ccccc21`, for which the cell number change was -40.5%. Moreover, the AC50 under setting [2] is 20.6 µM [falling, single point]. The AC50 under setting [1] is 20.6 µM [falling, single point].
On to `Cc1cc(NCCc2ccc(Cl)cc2)n2ncnc2n1`, for which the cell number change was -3.25%. Also, the AC50 under setting [1] was 0.0651 µM [falling, partial curve, poor fit].
Take `O=C(O)c1ccc(Cn2cc(C(F)(F)F)ccc2=O)cc1`: the cell number change was -34.6%. Besides, the AC50 under setting [1] is 29.1 µM [falling, single point].
Turning to `CC(=O)c1ccc(-n2nnnc2SCC(=O)NC2CCCCC2)cc1`, the cell number change stood at 2.42%. In addition, under setting [1], the AC50 was 6.51 µM [falling, single point].
Regarding `O=C(CN1CCN(C(=O)c2ccccc2)CC1)Nc1ccc(Cl)cc1F`, the cell number change was determined as 16.5%.
With `Cc1ccc(CC(=O)O/N=C(\N)Cc2ccc([N+](=O)[O-])cc2)cc1`, the cell number change was -2.9%. The AC50 under setting [2] was 0.146 µM [falling, full curve, poor fit]. Under setting [1], the AC50 is 0.146 µM [falling, single point].
`O=C(NCC(c1ccco1)N1CCc2ccccc2C1)c1cccc(F)c1` (configuration not stated): the cell number change is 21%. In addition, the AC50 under setting [1] was 6.51 µM [falling, single point].
Turning to `COC(=O)Cn1c2ccc(OC)cc2c2nc3ccccc3nc21`, the cell number change is 104%. For the same molecule, the AC50 under setting [2] is 2.59 µM [rising, full curve]. For the same molecule, under setting [1], the AC50 was 5.17 µM [rising, full curve].
`COc1ccc(C(=O)OCC(=O)N2CCOCC2)cc1S(=O)(=O)N1CCOCC1`: the cell number change was 9.81%. In addition, under setting [1], the AC50 is 0.00517 µM [rising, full curve, poor fit].
Consider `COc1cc(OC)cc(C(=O)Nc2ccc(CN3CCCCC3)cc2)c1`, for which the cell number change worked out at 26.2%. In addition, the AC50 under setting [1] is 20.6 µM [rising, partial curve].

For the origin of these results see PubChem BioAssay AID2685 (National Center for Advancing Translational Sciences (NCATS), 2010).
